Source: PubChem BioAssay AID2685 (National Center for Advancing Translational Sciences (NCATS), 2010)
This is one part of the list. The main result of the screen is listed elsewhere. These columns were measured beside it and carry no call. Compounds called inactive in the main read-out are mostly missing here. The note in brackets gives the kind of curve behind each potency; many fits are weak.

Experiment: qHTS Assay for Lipid Storage Modulators in Drosophila S3 Cells;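 as to cell number change: cells counted by Cell Tracker Red CMTPX staining in the red channel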
Details: BODIPY lipid droplet fluorescence, 18-24 h; for cell number change: measured here: cell count max response, cells fed with added oleic acid
Outline: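 Drosophila S3 cells got compounds at several concentrations plus oleic acid (400 uM solution). Laser-scanning cytometry with 488 nm excitation read lipid droplets at 500-530 nm and cells at 575-640 nm. Percent activity was relative to 20 uM Triacsin C.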

[1] = measured here: cell number channel AC50, cells fed with added oleic acid
[2] = measured here: lipid fluorescence (Fed channel) AC50, cells fed with added oleic acid

| Compound | cell number change | AC50 [1] | AC50 [2] |
| --- | --- | --- | --- |
| O=C(Nc1ccc(F)cc1)C1CCN(S(=O)(=O)c2ccc3[nH]c(=O)oc3c2)CC1 | -3.99% | 2.06 µM [rising, partial curve, poor fit] |  |
| CCn1c(C(O)c2ccc3c(c2)OCO3)nc2ccccc21 (stereo unspecified) | -29.3% |  | 6.51 µM [falling, single point] |
| O=C(Nc1ccc(N2CCN(Cc3ccccc3F)CC2)cc1)c1ccc([N+](=O)[O-])o1 | -17.7% |  | 9.2 µM [falling, partial curve] |
| CC(C)CCSc1cc(NCCO)c([N+](=O)[O-])c2nonc12 |  | 7.31 µM [falling, single point] |  |
| C=CCN1C(=O)C(Cc2ccccc2Cl)SC1=Nc1ccc(C(=O)O)cc1 (stereo unspecified) | -9.18% |  | 0.58 µM [falling, single point] |
| CC(=O)NC(C)(C)C1CC=C(C)/C(=N\O)C1 (stereo unspecified) | -54.1% | 0.461 µM [falling, full curve] | 4.11 µM [falling, full curve] |
| O=C(COC(=O)/C=C/c1ccc(F)cc1)NCc1ccco1 | -23.4% |  |  |
| CCOc1ccccc1N(CC(=O)NC1CCCCC1)S(C)(=O)=O | -12.2% |  |  |
| CCOc1ccc(CCNC(=O)C2CC(C)=CCC2C(=O)O)cc1OCC (stereo unspecified) | -24.3% |  |  |
| O=C(Nc1ccccc1N1CCCC1)c1cc(Cl)ccc1Cl | -47.5% | 32.6 µM [falling, single point] | 29.1 µM [falling, single point] |
| Cc1[nH][nH]c(=O)c1C(c1ccc(-c2ccc(Cl)cc2Cl)o1)c1c(C)[nH][nH]c1=O | 5.06% |  | 0.517 µM [falling, single point] |
| CC(CCc1ccccc1)NC(=O)C1CCCN(C(=O)c2cc3sccc3n2C)C1 (stereo unspecified) | -18.3% |  |  |
| CCC(C)(C#CCN1CCCCC1)OC(C)=O (stereo unspecified) | 36.4% | 18.4 µM [rising, partial curve, poor fit] | 32.6 µM [rising, single point] |
| Cc1ccc(S(=O)(=O)N2CCC(C(=O)Nc3ccc(N4CCOCC4)cc3)CC2)cc1C | -31.7% | 4.61 µM [falling, full curve, poor fit] |  |
| CCCCNC(=O)C1CCCNC1=O (stereo unspecified) | -0.104% |  |  |
| Cc1ccc(-n2ncc3c(N4CCCC(C)C4)ncnc32)c(C)c1 (stereo unspecified) | -14.8% |  | 0.146 µM [rising, full curve, poor fit] |
| Cc1ccc([N+](=O)[O-])c2c1C(N1CC(C)OC(C)C1)C(C)(C)O2 (stereo unspecified) | 4.78% |  |  |
| O=C(Nc1ccc(Cl)cc1)N1CCSCC1 | -3.58% |  | 1.84 µM [falling, full curve, poor fit] |
| O=C(COc1ccc2c(-c3ccccc3)cc(=O)oc2c1)Nc1ccc(CN2CCOCC2)cc1 | 17.6% |  | 6.51 µM [rising, single point] |
| O=C(NC1CCC(NC(=O)C2CCCO2)CC1)C1CCCO1 (stereo unspecified) | 9.06% |  | 29.1 µM [falling, single point] |
| CC(=O)N(CN1C(=O)c2ccccc2C1=O)c1ccc2c(c1)oc1ccccc12 | -27.4% | 0.651 µM [falling, full curve, poor fit] | 0.0206 µM [falling, full curve, poor fit] |

Given field by field: 2 of the compounds above.
O=C(COC(=O)/C=C/c1ccc(F)cc1)NCc1ccco1
  cell number change: -23.4%
CCOc1ccccc1N(CC(=O)NC1CCCCC1)S(C)(=O)=O
  cell number change: -12.2%

Following part

| Compound | cell number change | AC50 [1] | AC50 [2] |
| --- | --- | --- | --- |
| Cc1cccnc1NC(=O)Nc1ccc(Cl)cc1 | -2.19% |  |  |
| COc1ccc(-c2noc(-c3cc(Cl)ccc3Cl)n2)cc1OC |  | 0.651 µM [rising, partial curve] | 0.651 µM [rising, partial curve] |
| CC(=O)/C(=N\Nc1ccccc1)Oc1ccc([N+](=O)[O-])cc1 | -56.9% | 29.1 µM [falling, single point] |  |
| Cc1nn(-c2ccccc2)c2c1C1(C(=O)N3c4c(cccc41)C(C)CC3(C)C)C(C#N)=C(N)O2 (stereo unspecified) | -43.1% |  |  |
| CCCn1c(/C=N/Nc2nc3ccccc3[nH]2)nc2ccccc21 |  |  | 16.4 µM [falling, single point] |
| COc1ccc(Cc2nnc(NS(=O)(=O)c3ccc(Cl)cc3)s2)cc1OC | 22.1% |  | 25.9 µM [rising, partial curve] |
| COc1ccccc1OCC(=O)Nc1nonc1NC(=O)COc1ccccc1OC | -6.69% |  | 2.59 µM [falling, single point] |
| CCCCc1cc(=O)oc2cc(OCC(=O)NC3CCN(Cc4ccccc4)CC3)ccc12 | -17% |  |  |
| Cc1ccc(OCC(=O)NC(C)c2ccccc2)cc1C (stereo unspecified) | 0.787% |  |  |
| Cn1c(=O)[nH]c(=O)c2c1nc([N+](=O)[O-])n2Cc1ccccc1 | -65.9% | 9.2 µM [falling, partial curve] | 8.2 µM [falling, partial curve] |
| N#CCC(=O)c1sccc1-n1cccc1 | -34.9% | 11.6 µM [falling, single point] | 14.6 µM [falling, partial curve] |
| CC(C)N=C1SC(CC(=O)Nc2ccccc2)C(=O)N1C(C)C (stereo unspecified) | -39.6% | 32.6 µM [falling, single point] | 1.84 µM [falling, partial curve] |
| Cc1c(C)c2ccc(OCc3ccc(C(=O)O)o3)c(C)c2oc1=O | 96.7% | 16.4 µM [rising, single point] |  |
| C/C(=N\Nc1ccc2nncn2n1)c1ccccn1 | -24.3% |  | 9.2 µM [falling, partial curve, poor fit] |
| COc1ccc(-c2csc3ncnc(N4CCN(c5ccccc5O)CC4)c23)cc1 | -2.7% |  |  |
| O=c1cc(-c2ccccc2Cl)oc2c([N+](=O)[O-])c(O)cc(O)c12 | -12.5% |  | 20.6 µM [rising, single point] |
| Cc1ccc(S(=O)(=O)N2CCN(C(=O)CC(C)n3nc(C)c(Cl)c3C)CC2)cc1C (stereo unspecified) | -6.08% |  | 29.1 µM [rising, single point] |
| O=C(CN1CCCC1)Nc1c(Cl)cccc1Cl | 9.84% |  | 4.11 µM [rising, single point] |
| Cc1cc(=O)n2nc(N3CCCC(C(=O)NCCCN4CCc5ccccc5C4)C3)sc2n1 (stereo unspecified) | 10.1% |  | 16.4 µM [rising, single point] |
| Cc1ccccc1-c1nnc(SCc2ccccc2)o1 | -24.1% |  | 1.64 µM [rising, partial curve, poor fit] |
